Source: publication PMC8786944
No constants are given. Whether binding was seen depends on the method and setting. Binding seen in cells or lysates may run through a third protein. Some binding calls cover weakened binding; strength is not graded here. Tags and fused reporters may be left off the sequences shown.

Amino acid sequences for entries named in this document (tags omitted). A change or cut given only in a name is not applied to a line headed by its entry. Chains listed by the source or under a name are the forms on record and can include a tag or linker.
Nogo-B (neurite outgrowth inhibitor B)-flag (Q9NQC3-2, form named): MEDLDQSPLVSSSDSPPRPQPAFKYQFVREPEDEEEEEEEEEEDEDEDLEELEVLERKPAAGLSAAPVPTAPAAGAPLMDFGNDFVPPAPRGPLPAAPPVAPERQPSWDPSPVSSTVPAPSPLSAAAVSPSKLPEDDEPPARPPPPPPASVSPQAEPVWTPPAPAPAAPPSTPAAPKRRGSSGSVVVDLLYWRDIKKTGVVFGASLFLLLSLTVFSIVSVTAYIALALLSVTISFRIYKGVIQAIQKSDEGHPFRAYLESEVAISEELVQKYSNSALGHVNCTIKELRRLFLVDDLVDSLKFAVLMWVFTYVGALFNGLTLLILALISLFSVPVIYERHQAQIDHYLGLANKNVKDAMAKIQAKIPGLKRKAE

T1: NgR3-myc (UniProt Q86UN2)
T1 sequence: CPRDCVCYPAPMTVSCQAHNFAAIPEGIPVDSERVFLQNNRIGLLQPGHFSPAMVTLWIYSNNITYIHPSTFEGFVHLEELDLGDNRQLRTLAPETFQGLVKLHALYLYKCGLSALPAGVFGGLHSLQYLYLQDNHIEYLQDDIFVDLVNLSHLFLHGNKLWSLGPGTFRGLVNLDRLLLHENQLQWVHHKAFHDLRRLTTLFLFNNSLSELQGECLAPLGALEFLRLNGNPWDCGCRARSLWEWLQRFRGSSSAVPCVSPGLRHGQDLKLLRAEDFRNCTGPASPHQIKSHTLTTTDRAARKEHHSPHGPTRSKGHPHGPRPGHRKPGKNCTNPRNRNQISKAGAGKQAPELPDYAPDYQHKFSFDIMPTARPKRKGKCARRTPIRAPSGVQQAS

B1: NgR3-myc (receptor, UniProt Q86UN2 25-420)
chain: CPRDCVCYPAPMTVSCQAHNFAAIPEGIPVDSERVFLQNNRIGLLQPGHFSPAMVTLWIYSNNITYIHPSTFEGFVHLEELDLGDNRQLRTLAPETFQGLVKLHALYLYKCGLSALPAGVFGGLHSLQYLYLQDNHIEYLQDDIFVDLVNLSHLFLHGNKLWSLGPGTFRGLVNLDRLLLHENQLQWVHHKAFHDLRRLTTLFLFNNSLSELQGECLAPLGALEFLRLNGNPWDCGCRARSLWEWLQRFRGSSSAVPCVSPGLRHGQDLKLLRAEDFRNCTGPASPHQIKSHTLTTTDRAARKEHHSPHGPTRSKGHPHGPRPGHRKPGKNCTNPRNRNQISKAGAGKQAPELPDYAPDYQHKFSFDIMPTARPKRKGKCARRTPIRAPSGVQQAS

What was measured:
[1] = biological target: T1, NgR3-myc; assay: co-IP; lysates of HEK293T cells transfected with NgR3-myc and Nogo-B-flag; IP with anti-flag or anti-myc antibody on Protein A/G beads at 4 °C overnight; five washes with cold IP buffer; Western blotting
[2] = biological target: Nogo-B (neurite outgrowth inhibitor B)-flag (human) (UniProt Q9NQC3); assay: as above

| Molecule | binding [1] | binding [2] |
| --- | --- | --- |
| Nogo-B (neurite outgrowth inhibitor B)-flag (from UniProt Q9NQC3-2 1-373) | binds | – |
| B1 | – | binds |
